# In the supplement of paper PMC8728848:
# The list shows a part of the results.
# B1: GST-Gap1 (Streptococcus parasanguinis), A1C3L5 (protein)
# chain: MFYFVPSWYNGQRQWYYDTPWWFRVKNRMTFDDSVNQVKMFLQGQEEIGLMILNYQPQLRYFLHKQNIFGIYYWSFFDDIQNITRSYTKIIHLKDLNWPEGCEFLYSPFAVVVRLKGEIFAIVNYAEDGNLHSVSFQKNGKVTKDYIFDDRGFLSSILYYDIDERPLYQDYLNINGVWQVREFLKKENDPTPILMINDFSDQTFSKKYYNGWEELIKERLAIFQNNHVENEDVFVLASDTQHNQLVSSIFKEHRKIYSFFGNRFNLENLGQDRISINDATFLVVDTEKNEELLRKTCENLVFKSIPIVRLSPFDSRLRLGHSQTVKEQIIYFHIDNIELDELYSVIAIILELMTLHLDIELRIVTFRQDFQLDLLKTWIIDFIKTNHFEDLLFKQISEGENEIEDEGEIELSRIAMECFTNENQIIKCLDTARLVIDLGIEPDLYTQIASISAGIPQINRVSSDYVIHQKNGLVISDISKLSSAIEFYFDGLFNWNEALIYAVRKMSDYTSGKILKQWKGMLKKK
# Key:
# Assay in all cases: glycan array binding signal (z-score within array); higher = stronger binding
# Settings in all cases: glycan notation: IUPAC condensed, linker removed
# [1] = target: GlcNAc3Prop(b1-4)GlcNAc
# Method in brief: (§1)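 The binding signal is a Z-score computed within each array. Data were drawn from 3228 arrays in the Consortium for Functional Glycomics database, restricted to those with a known protein sequence. Scores were averaged over arrays of the same protein sequence at different concentrations or buffers, and over linkers, and negative values can be taken as non-binding.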
# [2] = target: GlcNAc6S(b1-3)Gal(b1-4)GlcNAc
# Method in brief: as §1
# [3] = target: Kdn(a2-3)Gal(b1-3)GalNAc
# Method in brief: as §1
# [4] = target: Kdn(a2-3)Gal(b1-3)GlcNAc
# Method in brief: as §1
# [5] = target: Kdn(a2-3)Gal(b1-4)Glc
# Method in brief: as §1
# [6] = target: Kdn(a2-3)Gal(b1-4)GlcNAc
# Method in brief: as §1
# [7] = target: Kdn(a2-3)Gal(b1-4)[Fuc(a1-3)]GlcNAc
# Method in brief: as §1
# [8] = target: Kdn(a2-6)Gal(b1-4)GlcNAc
# Method in brief: as §1
# [9] = target: Man(a1-2)Man(a1-2)Man(a1-3)Man
# Method in brief: as §1
# [10] = target: Man(a1-2)Man(a1-2)Man(a1-6)[Man(a1-3)]Man
# Method in brief: as §1
# [11] = target: Man(a1-2)Man(a1-3)Man
# Method in brief: as §1
# [12] = target: Man(a1-2)Man(a1-3)[Man(a1-2)Man(a1-6)]Man
# Method in brief: as §1
# [13] = target: Man(a1-2)Man(a1-3)[Man(a1-2)Man(a1-6)]Man(a1-6)[Man(a1-2)Man(a1-2)Man(a1-3)]Man
# Method in brief: as §1
# [14] = target: Man(a1-2)Man(a1-3)[Man(a1-2)Man(a1-6)]Man(a1-6)[Man(a1-2)Man(a1-2)Man(a1-3)]Man(b1-4)GlcNAc(b1-4)GlcNAc
# Method in brief: as §1
# [15] = target: Man(a1-2)Man(a1-3)[Man(a1-6)]Man(a1-6)[Man(a1-2)Man(a1-3)]Man(b1-4)GlcNAc(b1-4)GlcNAc
# Method in brief: as §1
# [16] = target: Man(a1-2)Man(a1-6)[Man(a1-3)]Man(a1-6)[Man(a1-2)Man(a1-2)Man(a1-3)]Man
# Method in brief: as §1
# [17] = target: Man(a1-2)Man(a1-6)[Man(a1-3)]Man(a1-6)[Man(a1-2)Man(a1-2)Man(a1-3)]Man(b1-4)GlcNAc(b1-4)GlcNAc
# Method in brief: as §1
# [18] = target: Man(a1-3)[Man(a1-6)]Man
# Method in brief: as §1
# [19] = target: Man(a1-3)[Man(a1-6)]Man(a1-6)[Man(a1-2)Man(a1-3)]Man(b1-4)GlcNAc(b1-4)GlcNAc
# Method in brief: as §1
# [20] = target: Man(a1-3)[Man(a1-6)]Man(a1-6)[Man(a1-3)]Man
# Method in brief: as §1
# [21] = target: Man(a1-3)[Man(a1-6)]Man(a1-6)[Man(a1-3)]Man(b1-4)GlcNAc(b1-4)GlcNAc
# Method in brief: as §1
# [22] = target: Man(a1-3)[Man(a1-6)]Man(b1-4)GlcNAc(b1-4)GlcNAc
# Method in brief: as §1
# [23] = target: Man(a1-3)[Man(a1-6)]Man(b1-4)GlcNAc(b1-4)[Fuc(a1-6)]GlcNAc
# Method in brief: as §1
# [24] = target: Man(a1-6)Man
# Method in brief: as §1
# [25] = target: Man(b1-4)GlcNAc
# Method in brief: as §1
# [26] = target: MurNAc(b1-4)GlcNAc
# Method in brief: as §1
# [27] = target: Neu5Ac(a2-3)Gal
# Method in brief: as §1
# [28] = target: Neu5Ac(a2-3)Gal(b1-3)GalNAc
# Method in brief: as §1
# [29] = target: Neu5Ac(a2-3)Gal(b1-3)GalNAc(b1-3)Gal(a1-4)Gal(b1-4)Glc
# Method in brief: as §1
# [30] = target: Neu5Ac(a2-3)Gal(b1-3)GalNAc(b1-4)Gal(b1-4)Glc
# Method in brief: as §1
# [31] = target: Neu5Ac(a2-3)Gal(b1-3)GalNAc(b1-4)[Neu5Ac(a2-3)]Gal(b1-4)Glc
# Method in brief: as §1
# [32] = target: Neu5Ac(a2-3)Gal(b1-3)GalNAc(b1-4)[Neu5Ac(a2-8)Neu5Ac(a2-3)]Gal(b1-4)Glc
# Method in brief: as §1
# [33] = target: Neu5Ac(a2-3)Gal(b1-3)GalNAc6S
# Method in brief: as §1
# [34] = target: Neu5Ac(a2-3)Gal(b1-3)GlcNAc
# Method in brief: as §1
# [35] = target: Neu5Ac(a2-3)Gal(b1-3)GlcNAc(b1-2)Man
# Method in brief: as §1
# [36] = target: Neu5Ac(a2-3)Gal(b1-3)GlcNAc(b1-2)Man(a1-3)[GlcNAc(b1-4)][Neu5Ac(a2-3)Gal(b1-3)GlcNAc(b1-2)Man(a1-6)]Man(b1-4)GlcNAc(b1-4)GlcNAc
# Method in brief: as §1
# [37] = target: Neu5Ac(a2-3)Gal(b1-3)GlcNAc(b1-2)Man(a1-3)[Neu5Ac(a2-3)Gal(b1-3)GlcNAc(b1-2)Man(a1-6)]Man(b1-4)GlcNAc(b1-4)GlcNAc
# Method in brief: as §1
# [38] = target: Neu5Ac(a2-3)Gal(b1-3)GlcNAc(b1-2)[Neu5Ac(a2-3)Gal(b1-3)GlcNAc(b1-4)]Man(a1-6)[Neu5Ac(a2-3)Gal(b1-3)GlcNAc(b1-2)Man(a1-3)]Man(b1-4)GlcNAc(b1-4)GlcNAc
# Method in brief: as §1
binder,measurement,setting,value
B1,glycan array binding signal (z-score),[1],-0.216
same,glycan array binding signal (z-score),[2],-0.181
same,glycan array binding signal (z-score),[3],-0.383
same,glycan array binding signal (z-score),[4],-0.28
same,glycan array binding signal (z-score),[5],-0.979
same,glycan array binding signal (z-score),[6],-0.084
same,glycan array binding signal (z-score),[7],-0.408
same,glycan array binding signal (z-score),[8],-0.034
same,glycan array binding signal (z-score),[9],-0.034
same,glycan array binding signal (z-score),[10],0.165
same,glycan array binding signal (z-score),[11],0.075
same,glycan array binding signal (z-score),[12],-0.526
same,glycan array binding signal (z-score),[13],-0.183
same,glycan array binding signal (z-score),[14],-0.397
same,glycan array binding signal (z-score),[15],-0.38
same,glycan array binding signal (z-score),[16],-0.089
same,glycan array binding signal (z-score),[17],0.949
same,glycan array binding signal (z-score),[18],-0.075
same,glycan array binding signal (z-score),[19],-0.26
same,glycan array binding signal (z-score),[20],-0.551
same,glycan array binding signal (z-score),[21],-0.833
same,glycan array binding signal (z-score),[22],-0.02
same,glycan array binding signal (z-score),[23],-0.278
same,glycan array binding signal (z-score),[24],-0.434
same,glycan array binding signal (z-score),[25],0.1
same,glycan array binding signal (z-score),[26],-0.969
same,glycan array binding signal (z-score),[27],-0.63
same,glycan array binding signal (z-score),[28],-0.131
same,glycan array binding signal (z-score),[29],-0.09
same,glycan array binding signal (z-score),[30],-1.17
same,glycan array binding signal (z-score),[31],0.006
same,glycan array binding signal (z-score),[32],0.39
same,glycan array binding signal (z-score),[33],0.574
same,glycan array binding signal (z-score),[34],0.358
same,glycan array binding signal (z-score),[35],-1.71
same,glycan array binding signal (z-score),[36],0.543
same,glycan array binding signal (z-score),[37],0.586
same,glycan array binding signal (z-score),[38],-0.232

# Part of the list above, as tab-separated lines.
binder	measurement	setting	value
B1	glycan array binding signal (z-score)	[13]	-0.183
same	glycan array binding signal (z-score)	[14]	-0.397
